Reference: patent publication US7387779B2, “Anti-angiogenic proteins and fragments and methods of use thereof” (Beth Israel Deaconess Medical Center, priority 1998, dated 2008)
At least one structure is not confirmed: it was looked up by name or label, or the drawing left a doubt.

Columns and labels:
[1] = test system: C-PAE cells; assay: Total protein synthesis, 35S-methionine incorporation; type: cell-based, bovine; conditions: 4.5 μM; 24 hours of serum stimulation; rapamycin 100 ng/ml
Method: (§1) Primary human renal epithelial cells (HRE) were purchased from Clonetics (San Diego, Calif., USA) and were maintained in REGM (Clonetics Corp.). Other cell lines were obtained and maintained as described above. Cells were serum-starved for 24 hrs (0.5% FCS), stimulated with 10% FCS in the presence of T3 peptide, Tumstatin-44-131, endostatin or rapamycin for 12-24 hours. After pre-incubation of cells in methionine-free media for 1 hour, cells were labeled with ^35S-methionine for 1 hour and incorporation of radioactivity into trichloracetic acid precipitates was analyzed (Sudhakar, A. et al., 2000, Biochem. 39:12929-38; Maeshima, Y. et al., 1996, J. Amer. Soc. Nephrol. 7:2219-29). ANOVA with a one-tailed Student's t test was used to identify significant differences in multiple comparisons in the present study. A level of P<0.05 was considered statistically significant.

[2] = test system: HUVECs; assay: as above; type: cell-based, human; conditions: 4.5 μM; 24 hours of serum stimulation; rapamycin 100 ng/ml
Method: as §1

[3] = test system: PC-3, 786-O, NIH3T3, HRE and WM-164 cells; assay: Total protein synthesis, 35S-methionine incorporation, non-endothelial cells; type: cell-based; conditions: 4.5 μM; rapamycin 100 ng/ml; 24 hours
[4] = test system: bovine endothelial cells; assay: Cap-dependent (LUC) / cap-independent (CAT) translation reporter; type: cell-based; conditions: 4.5 μM; rapamycin 100 ng/ml
[5] = test system: non-endothelial cells (NIH3T3); assay: as above; type: cell-based; conditions: rapamycin 100 ng/ml
[6] = test system: MLEC β3+/+; assay: Protein synthesis and cap-dependent translation in wild-type mouse lung endothelial cells; type: cell-based; conditions: 4.5 μM; rapamycin 100 ng/ml
From the text: (§2) Therefore, to evaluate the effect of tumstatin peptides on cap-dependent and independent translation, endothelial cells were isolated from lungs of 12-week-old mice that were deficient in the expression of αvβ3 integrin (i.e., 3 integrin-deficient mice), and also their wild-type counterparts (Hodivala-Dilke, K. M. et al., 1999, J. Clin. Invest. 103:229-38). Briefly, ICAM-2 expressing MLEC were enriched using rat anti-mouse ICAM-2 (# 01800D, PharMingen, San Diego, Calif., USA) conjugated to magnetic beads (Dynabeads M-450, Dynal, Oslo, Norway). MLEC were maintained in 40% Ham's F-12,40% DME-Low Glucose, 20% FBS supplemented with heparin, endothelial mitogen (Biomedical Technologies, Inc., Cambridge, Mass., USA), glutamine and penicillin/streptomycin. Wild-type and β3-integrin-deficient mouse embryonic fibroblasts were prepared (Hodivala-Dilke, K. M. et al., 1999, J. Clin. Invest. 103:229-38). MEFs were maintained in DMEM containing 10% FBS. MLEC were characterized for homogeneity by morphological observations and by immunofluorescence staining for endothelial-specific markers. Cells between passage 3 and 6 were used for the experiments.

[7] = test system: MLEC β3−/−; assay: Protein synthesis and cap-dependent translation in β3-integrin deficient endothelial cells; type: cell-based, mouse; conditions: 4.5 μM; rapamycin 100 ng/ml
From the text: as §2

[8] = test system: MEF; assay: Protein synthesis and cap-dependent translation in mouse embryonic fibroblasts; type: cell-based; conditions: 4.5 μM; rapamycin 100 ng/ml

With `CO[C@H]1C[C@@H]2CC[C@@H](C)[C@@](O)(O2)C(=O)C(=O)N2CCCC[C@H]2C(=O)O[C@H]([C@H](C)C[C@@H]2CC[C@@H](O)[C@H](OC)C2)CC(=O)[C@H](C)/C=C(\C)[C@@H](O)[C@@H](OC)C(=O)[C@H](C)C[C@H](C)/C=C/C=C/C=C/1C` [rapamycin, reference compound] the “inhibition of protein synthesis” value [1] was “inhibited protein synthesis”, the “inhibition of protein synthesis” value [2] was “inhibited protein synthesis” and the “inhibition of protein synthesis in non-endothelial cells” value [3] was “inhibits protein synthesis in all cells tested”. For the same compound, the “cap-independent translation (CAT activity)” value [4] was “induced cap independent translation”, the “cap-dependent translation in non-endothelial cells” value ([5]; 4.5 μM) was “did” and the “cap-independent translation in NIH3T3 cells” value [5] was “decreased”. The “protein synthesis / cap-dependent translation in control (β3+/+) endothelial cells” value [6] was “inhibited cap-dependent protein synthesis”, the “cap-dependent protein synthesis in αvβ3 integrin deficient (β3−/−) endothelial cells” value [7] was “inhibited cap-dependent protein synthesis” and the “protein synthesis in mouse embryonic fibroblasts” value [8] was “inhibited protein synthesis and cap-dependent translation”.
